Our source for the binding values is article PMC10920845.

Protein sequences, listed by entry. Tags and fused reporters are not part of them.
UniProt O35129: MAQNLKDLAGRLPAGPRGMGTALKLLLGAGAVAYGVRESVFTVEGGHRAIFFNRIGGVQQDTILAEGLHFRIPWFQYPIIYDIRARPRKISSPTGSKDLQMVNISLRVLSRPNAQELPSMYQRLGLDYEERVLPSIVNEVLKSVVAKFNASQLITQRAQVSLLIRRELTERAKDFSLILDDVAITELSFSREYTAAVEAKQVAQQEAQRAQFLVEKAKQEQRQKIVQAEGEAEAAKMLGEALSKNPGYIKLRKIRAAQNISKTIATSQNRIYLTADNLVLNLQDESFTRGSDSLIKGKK
UniProt P52480: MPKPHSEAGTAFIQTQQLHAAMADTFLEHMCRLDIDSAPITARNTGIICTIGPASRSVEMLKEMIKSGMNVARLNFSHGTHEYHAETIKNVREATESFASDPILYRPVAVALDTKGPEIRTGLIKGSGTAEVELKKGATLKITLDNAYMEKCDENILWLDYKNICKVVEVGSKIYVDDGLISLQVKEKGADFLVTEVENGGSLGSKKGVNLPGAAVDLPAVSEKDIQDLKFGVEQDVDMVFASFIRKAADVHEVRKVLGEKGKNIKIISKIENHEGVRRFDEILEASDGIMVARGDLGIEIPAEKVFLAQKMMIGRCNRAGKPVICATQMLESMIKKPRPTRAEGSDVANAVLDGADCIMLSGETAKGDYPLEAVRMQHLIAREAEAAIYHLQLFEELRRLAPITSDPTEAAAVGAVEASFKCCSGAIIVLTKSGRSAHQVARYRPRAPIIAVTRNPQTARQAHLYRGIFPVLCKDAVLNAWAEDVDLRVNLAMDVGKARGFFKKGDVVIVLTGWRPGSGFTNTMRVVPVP

These are yes or no findings as the source states them, for the method shown. In cells and extracts the contact can be indirect. Some binding calls cover weakened binding; strength is not graded here.

Test [1] deals with Prohibitin 2 (PHB2) (mouse (endogenous in HL-1 and N2a)) (UniProt O35129). Nature of the test: co-IP; HL-1 cell lysate; cells treated with MG132 for six hours; lysis in 20 mM Tris-HCl pH 7.5, 150 mM NaCl, 10% glycerol, 1% Triton X-100; primary antibody overnight, IgG magnetic beads 2 h at 4°C; with and without LPS treatment of the cells; bait not stated.
Test [2] has the same target. Nature of the test: co-IP; N2a cell lysate; cells treated with MG132 for six hours; lysis in 20 mM Tris-HCl pH 7.5, 150 mM NaCl, 10% glycerol, 1% Triton X-100; primary antibody overnight, IgG magnetic beads 2 h at 4°C; with and without LPS treatment of the cells; bait not stated.

With “Pyruvate Kinase M2 (PKM2) (from UniProt P52480 1-531) (enzyme)”, the binding entry in test [1] and in test [2] was “binds” throughout.
